Experimental data: PubChem BioAssay AID1224829 (NIAID, 2016)

- Purpose: 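Secondary check of hits that alter LPS-induced p65 translocation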 (follow-up of hits)
- Cell system: mouse RAW264.7 G9 macrophage reporter cells
- Knock-down reagent: single siRNA against mouse genes, 100 nM
- Timing: 2 days of siRNA knock-down, then 40 min of LPS before fixing
- Conditions: LPS (Salmonella minnesota R595) at 10 ng/ml
- Measured: 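Imaging of GFP-p65 after 40 min of LPS; nuclear over perinuclear ring intensity ratio, scaled to plate median and non-targeting control wells, given as z-score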
- Direction: p65 translocation z-score: higher = more nuclear NF-kappaB p65 after LPS
- Rule for the call: 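Active means the replicate-mean z-score lies beyond plus or minus 2, in either direction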
- Calls: active = changed p65 translocation (either direction); inactive = no clear change
Shown is one part, drawn at random, of about 3,800 reagents tested. 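Calls cover raised and lowered translocation; gene median uses one vendor's three siRNAs; qiagen siRNAs acted more weakly than ambion siRNAs.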 Entries without a mark were called inactive. The numbers tell different reagents against one gene apart. Further read-outs or replicates are left out here. Reagent sequences are not shown.

| Target gene | reagent no. | siRNA vendor or control pool | p65 translocation z-score, replicate mean |
| --- | --- | --- | --- |
| Tmem18 | 1 | ambion single siRNA | -4.01 (active) |
| Tmem18 | 2 | ambion single siRNA | 1.5 |
| Tmem18 | 3 | ambion single siRNA | -4.23 (active) |
| Tmem18 | 4 | qiagen single siRNA | 0.955 |
| Tmem18 | 5 | qiagen single siRNA | -1.76 |
| Tmem18 | 6 | qiagen single siRNA | -0.296 |
| Tbx21 | 1 | ambion single siRNA | 1.71 |
| Tbx21 | 2 | ambion single siRNA | 1.08 |
| Tbx21 | 3 | ambion single siRNA | 3.49 (active) |
| Tbx21 | 4 | qiagen single siRNA | 0.808 |
| Tbx21 | 5 | qiagen single siRNA | 1.25 |
| Tbx21 | 6 | qiagen single siRNA | -2.75 (active) |

Reformatted: results already given
{"Target gene":"Tmem18","reagent no.":4,"siRNA vendor or control pool":"qiagen single siRNA","p65 translocation z-score, replicate mean":0.955}
{"Target gene":"Tmem18","reagent no.":5,"siRNA vendor or control pool":"qiagen single siRNA","p65 translocation z-score, replicate mean":-1.76}
{"Target gene":"Tmem18","reagent no.":6,"siRNA vendor or control pool":"qiagen single siRNA","p65 translocation z-score, replicate mean":-0.296}

The list goes on:
| Target gene | reagent no. | siRNA vendor or control pool | p65 translocation z-score, replicate mean |
| --- | --- | --- | --- |
| Agbl5 | 1 | ambion single siRNA | 2.65 (active) |
| Agbl5 | 2 | ambion single siRNA | -2.52 (active) |
| Agbl5 | 3 | ambion single siRNA | -2.62 (active) |
| Agbl5 | 4 | qiagen single siRNA | -0.409 |
| Agbl5 | 5 | qiagen single siRNA | -3.21 (active) |
| Agbl5 | 6 | qiagen single siRNA | -5.68 (active) |
| Atp1a3 | 1 | ambion single siRNA | -2.99 (active) |
| Atp1a3 | 2 | ambion single siRNA | -0.848 |
| Atp1a3 | 3 | ambion single siRNA | -8.85 (active) |
| Atp1a3 | 4 | qiagen single siRNA | 1.73 |
| Atp1a3 | 5 | qiagen single siRNA | -3.51 (active) |
| Atp1a3 | 6 | qiagen single siRNA | -3.17 (active) |
